Measurements from the supplement of paper PMC7125110.
± gives the standard error. The uncertainty is large for many entries.

B1: glmS ribozyme (parent)
chain: AUAAAAGCGCCAGAACUACAGAAAUGUAGUUGACGAGGAGGAGGUUUAUCGAAUUUUCGGCGGAUGCCUCCAAA

Variants of: B1
Test: KM; higher = weaker cofactor use; RNA array
Conditions: with glucosamine-6-phosphate
Summary of the method: (§1)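 In situ transcription by E. coli RNA polymerase produced barcoded ribozyme variants on sequenced MiSeq chips, and a hybridised Cy3 probe tracked them at 37 °C. Glucosamine-6-phosphate was flowed in at 40 μM to 10 mM in HEPES/KCl/Mg(OAc)2 buffer. kcat and KM were taken from weighted Michaelis–Menten fits of kobs values from exponential decay fits.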

Variant | KM [µM]
A12G C16U | 9760 ± 5800
U49G A53U | 4490 ± 760
A12U C71G | 391 ± 290
A12G A42U | 20200 ± 1600
A12U A53U | 1310 ± 840
C34A C67G | 10900 ± 9500
G29U C71G | 583 ± 350
U47C U69A | 1890 ± 1300
A14G A39C | 3470 ± 520
G41A G66A | 2930 ± 2100
A6U U69C | 380 ± 200
A53C C71A | 1610 ± 520
C58A C67U | 1370 ± 290
G13U C58A | 4360 ± 3500
A42G U55C | 895 ± 430
A52U C71A | 1190 ± 670
A14U U54A | 1560 ± 560
G37A U47G | 1250 ± 600
A33U G41U | 361 ± 290
U31G G40U | 2730 ± 500
G40A G41C | 1010 ± 630
G40A G41A | 486 ± 460
A14C C71G | 3120 ± 2400

Taken from above.
Value of G13U C58A under KM [µM]: 4360 ± 3500
Value of G29U C71G under KM [µM]: 583 ± 350
Value of A52U C71A under KM [µM]: 1190 ± 670

Next entries

Variant | KM [µM]
C34U A42U | 70.4 ± 29
G29U G41C | 5390 ± 3700
G7U A53C C58A U69G C70U | 374 ± 200
G40C A48U | 37600 ± 14000
A14G G37C | 2180 ± 2200
U46A C71A | 2930 ± 2200
C16U A48G | 1020 ± 760
A14U G32C C67A | 12200 ± 9500
G32U C71G | 741 ± 280
U46A U47C | 2240 ± 840
G32A A52G | 1760 ± 480
A42U A48U A64U C68U | 11.3 ± 3.5
G13C U31C G32U U65G C67U | 3040 ± 640
A14C U31A | 666 ± 410
G40A C58U | 25300 ± 14000
A12U G40A C71U | 2130 ± 1200
A12C C50A U56A | 1570 ± 1300
G29A A48U | 110000 ± 30000
A12U G44U | 1290 ± 350
A12C A15U C16U C70U | 514 ± 130
A6G U55G | 2390 ± 350
C34A G51C | 246 ± 210
G13A A14G | 3430 ± 1000

Variant | KM [µM]
U49G U65G | 6050 ± 1500
A36U U55A C61A | 57.8 ± 29
C16A G51A | 632 ± 220
U30C C68U | 1210 ± 270
U47C U57A | 39500 ± 11000
G51A G60U | 214 ± 190
U46G A52U | 12000 ± 1400
G40A G66U | 2050 ± 330
G32A C58A C68U | 6330 ± 3300
U31C G40C | 943 ± 550
G21A | 330 ± 170
G32U A53C | 2210 ± 2100
A14U A39G | 2730 ± 1800
A48G C70A | 631 ± 490
A12G U69C | 3900 ± 1900
U30G A42U C67G | 717 ± 410
U47C U49G | 1240 ± 220
U30C G40C | 933 ± 520
C10U A53U | 4460 ± 3100
G13C G66U | 766 ± 350
G40U U54A | 508 ± 500
U46A A64C | 788 ± 440
U31A A39U | 3370 ± 1000

Given tab-delimited: entries from further up.
Variant	KM [µM]
A36U U55A C61A	57.8 ± 29
U46G A52U	12000 ± 1400
U31C G40C	943 ± 550
G32U A53C	2210 ± 2100
A48G C70A	631 ± 490
G13C G66U	766 ± 350

(continued)

Variant | KM [µM]
G13C U31G C70U | 1340 ± 910
G40U | 5200 ± 3700
G40C | 846 ± 520
G38C C71U | 26.8 ± 19
U30C U56G | 2110 ± 1100
C16G G32C | 4550 ± 1400
A14U U56G | 634 ± 390
C50A U55G | 754 ± 480
U31C U55C | 3750 ± 300
G13U A15C U54C | 463 ± 330
C16U U54C | 732 ± 590
C19A G40C | 832 ± 360
G41A C67A | 51300 ± 40000
U47A A53C | 2450 ± 2000
U47A A53G | 1170 ± 880
G13U U56G | 2720 ± 820
A42U G66C | 21400 ± 17000
U49G C68U | 862 ± 360
C11A A14C | 2820 ± 410
U30G A53U | 1690 ± 860
A15G U47A | 1570 ± 1400
A14C C16A | 548 ± 390
G37C U65A | 13300 ± 13000

Variant | KM [µM]
A12G G29C | 3980 ± 3000
C16G C61U C67U | 30.7 ± 22
A39G G66C | 3270 ± 2000
A39G G66A | 2510 ± 1600
A12U A52G | 11300 ± 8200
U30G A52G | 2430 ± 620
A12C U49G | 1730 ± 210
A14U G40A | 1500 ± 450
C11U A42G | 3690 ± 2100
A39G A48U | 5000 ± 1200
G32A G66A | 6290 ± 1700
G13A C16A | 14000 ± 570
C50G G62U U69G | 49.5 ± 48
C8U C61A | 64.2 ± 61
A14U U57C | 1310 ± 930
G38A G62U | 14.5 ± 8.2
A42G C67G | 2220 ± 1800
C10G A39G | 380 ± 230
A14G A53C C71U | 1290 ± 1100
A14C U54A | 1250 ± 1100
U31A U47G C70U | 518 ± 480
C16U U45A | 744 ± 540
A12G A52G A53G | 6940 ± 5000

A stretch from the list above:
Variant | KM [µM]
U30G A52G | 2430 ± 620
A12C U49G | 1730 ± 210

Variants of: B1
Test: self-cleavage kobs at 40 uM GlcN6P; higher = faster cleavage; RNA array
Conditions: with glucosamine-6-phosphate
Summary of the method: as §1

Variant | self-cleavage kobs at 40 uM GlcN6P [s⁻¹]
A12G C16U | 1.97e-05 ± 1.6e-05
U49G A53U | 1.06e-05 ± 1e-05
A14C C71G | 3.44e-05 ± 2.2e-05
A6G G32U C50G U57G C61A G66U | 3e-05 ± 1.5e-05
C16G G38U G63A C68G | 3.32e-05 ± 2.8e-05
G13U U56G | 2.28e-05 ± 1.2e-05
G32A G66A | 3e-05 ± 1.9e-05

Variants of: B1
Test: kcat; higher = faster cleavage; RNA array
Conditions: with glucosamine-6-phosphate
Summary of the method: as §1

Variant | kcat [s⁻¹]
A12U A53U | 0.0471 ± 0.024
C50U U57A C68A U69G C71G | 4.02e-05 ± 2.5e-05
C58A C67U | 0.000215 ± 1.7e-05
G13U C58A | 0.00192 ± 0.0011
A15U G37C C70G | 2.75e-05 ± 1.1e-05
A15U C70G C71A | 1.99e-05 ± 1.7e-05
A36C C50G U54A G60U | 2.45e-05 ± 1.8e-05
C58G A64C C67U | 3.63e-05 ± 2.4e-05
A14U G32C C67A | 0.000192 ± 9.7e-05
C10U A53U G59C C68G | < 1e-05
U49A C68A | 1.25e-05 ± 6e-06
A6G G32U C50G U57G C61A G66U | 0.000127 ± 8.5e-05
A15G C16U C68G | 5.74e-05 ± 2.6e-05
C16G G38U G63A C68G | 3.16e-05 ± 1.9e-05
U30C C68U | 0.000128 ± 8.6e-06
A12G U69C | 0.000893 ± 0.00026
C10U C34A C50G U65A | 0.000166 ± 0.00014
U47C U49G | 0.000198 ± 1.4e-05
A6C A15U | 1.71e-05 ± 1.1e-05
G40U U54A | 0.000873 ± 0.00056
C34U U69G | 0.00031 ± 0.00016
G13C U31G C70U | 0.000159 ± 3.6e-05
G40U | 0.0166 ± 0.01
G40C | 0.00326 ± 0.0017

Variant | kcat [s⁻¹]
U54G C61A | < 1e-05
U55C C68G | < 1e-05
C16U U54C | 0.0104 ± 0.0055
G41A C67A | 0.000258 ± 0.00017
U47A A53C | 0.00699 ± 0.0045
U47A A53G | 0.0188 ± 0.011
G38A C71U | < 1e-05
C16U C61G C67A | 2.72e-05 ± 6.4e-06
G32U A42C | 1.43e-05 ± 1.3e-05
A42U G66C | 2.02e-05 ± 1.1e-05
C11A A14C | 6.31e-05 ± 3.4e-06
A15G U47A | 0.0213 ± 0.015
A33U U69G | 5.59e-05 ± 4.2e-05
G37C U65A | < 1e-05
U65A U69C | 0.000883 ± 0.00052
A12U A52G | 0.016 ± 0.0097
A39G A48U | 0.00118 ± 0.00016
U45A C70U | 0.00288 ± 0.0015
A42G C67G | 0.0139 ± 0.0077
A14G A53C C71U | 0.00788 ± 0.0043
A14C U54A | 0.00395 ± 0.0022
A48U A53C C68G C71G | 4.41e-05 ± 3.4e-05
A53U U69G | 6.8e-05 ± 1.2e-05
U31A U47G C70U | 0.00121 ± 0.00064

Variants of: B1
Test: self-cleavage kobs at 2500 uM GlcN6P; higher = faster cleavage; RNA array
Conditions: with glucosamine-6-phosphate
Summary of the method: as §1

Variant | self-cleavage kobs at 2500 uM GlcN6P [s⁻¹]
C50U U57A C68A U69G C71G | 7.07e-05 ± 4.4e-05
A15U G37C C70G | 3.84e-05 ± 2e-05
G29U G41C | 1.38e-05 ± 1.1e-05
G40C A48U | 1.46e-05 ± 1.1e-05
A36C C50G U54A G60U | 2.38e-05 ± 2.3e-05
C58G A64C C67U | 2.73e-05 ± 2.5e-05
G13C U31C G32U U65G C67U | 3.2e-05 ± 1.8e-05
A12U G40A C71U | 0.0456 ± 0.024
C16G G38U G63A C68G | 0.000857 ± 0.00071
U46A A64C | 3.16e-05 ± 2e-05
C16U C61G C67A | 3.2e-05 ± 2.8e-05
A33U U69G | 3.76e-05 ± 1.9e-05
A14U G40A | 0.000652 ± 0.00039

Variants of: B1
Test: self-cleavage kobs at 160 uM GlcN6P; higher = faster cleavage; RNA array
Conditions: with glucosamine-6-phosphate
Summary of the method: as §1

Variant | self-cleavage kobs at 160 uM GlcN6P [s⁻¹]
C58A C67U | 2.03e-05 ± 1.7e-05
C16U A48G | 1.69e-05 ± 1.7e-05
C58G A64C C67U | 2.95e-05 ± 2.2e-05
A12U G40A C71U | 0.00441 ± 0.0024
A6G U55G | 2.67e-05 ± 2.3e-05
A12G U69C | 2.91e-05 ± 2.2e-05
U30C U56G | 2.74e-05 ± 2e-05
A15G U47A | 0.00126 ± 0.00084
A39G A48U | 2.25e-05 ± 1.8e-05
C16U U45A | 0.00348 ± 0.0018

Variants of: B1
Test: self-cleavage kobs at 640 uM GlcN6P; higher = faster cleavage; RNA array
Conditions: with glucosamine-6-phosphate
Summary of the method: as §1

Variant | self-cleavage kobs at 640 uM GlcN6P [s⁻¹]
A15U C70G C71A | 9.64e-05 ± 7.4e-05
G7U A53C C58A U69G C70U | 0.000369 ± 0.00025
C16G G38U G63A C68G | 4.71e-05 ± 3.3e-05
U30C G40C | 2.12e-05 ± 1.7e-05
G13U A15C U54C | 6.27e-05 ± 4.3e-05
A15G U47A | 0.00267 ± 0.0015
G13A C16A | 1.46e-05 ± 9.7e-06

Variants of: B1
Test: self-cleavage kobs at 10000 uM GlcN6P; higher = faster cleavage; RNA array
Conditions: with glucosamine-6-phosphate
Summary of the method: as §1

Variant | self-cleavage kobs at 10000 uM GlcN6P [s⁻¹]
A14C U31A | 0.0407 ± 0.024
G40A C58U | 1.3e-05 ± 8.9e-06
A15G C16U C68G | 2.5e-05 ± 1.8e-05
U46A A64C | 3.67e-05 ± 2.5e-05
G40C | 0.01 ± 0.009
C50A U55G | 2.17e-05 ± 1.2e-05
A39G G66C | 0.0019 ± 0.001
A12G A52G A53G | 1.49e-05 ± 1.2e-05
